# Measured data: PubChem BioAssay AID652259 (Drosophila RNAi Screening Center, 2013)
# Assay: 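Identify new Wingless signalling regulators in fly cells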 (primary screen)
# Cell system: Drosophila clone 8 imaginal disc epithelial cells
# Knock-down reagent: long dsRNA against Drosophila genes
# Conditions: pathway stimulated by co-transfected Wingless expression plasmid
# Read-out: 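Dual luciferase reads per well after Wingless plasmid stimulation: reporter firefly light and Renilla control light; activity is firefly divided by Renilla, a ratio not deposited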
# Scale: firefly reporter light: higher = more Wg reporter light, before normalisation; Renilla control light: higher = more transfected or surviving cells
# Hit rule: 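a knock-down is a candidate when at least two out of four statistical tests show it departing from its plate mean; one test alone signals a weak candidate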
# Calls: active = candidate regulator (raises or lowers reporter); inactive = not a candidate
# The deposit covers about 22,000 reagents; shown is a random part of those that have a named target and a result. Over the whole deposit, 233 (1.1%) are marked active. 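Light values are raw, unnormalised plate reads; the ratio scores behind the reporter calls were not deposited.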 Reagents against one gene are numbered here. A plus sign joins genes that one reagent is predicted to hit. Reagent sequences are not shown. Not given: the amount of reagent, the time to read-out, the dose of the treatment.
gene,reagent,"reporter change call, replicate 1","firefly reporter light, replicate 1","firefly reporter light, replicate 2","Renilla control light, replicate 1","Renilla control light, replicate 2",Outcome
Pex11ab,1,,5243,,1682,,inactive
CG17786,1,,16246,,12977,,inactive
Osi11,1,,8540,,1540,,inactive
bdg,1,,11024,,3421,,inactive
CG31267,1,,15836,,3972,,inactive
cocoon,1,,7440,,3416,,inactive
Start1,1,,15605,,4532,,inactive
RhoGEF2,1,,15445,,4970,,inactive
Ipk1,1,,11715,,3184,,inactive
Ipk1,2,,2355,6913,800,2313,inactive
Ipk1,3,,3025,6822,966,2432,inactive
CG43253 (retired record),1,,3137,,1574,,inactive
CG31538,1,,4512,,1386,,inactive
Agxt,1,,1872,4944,611,1767,inactive
Ranbp16 + Lcch3,1,,3062,12173,967,2451,inactive
Ns2,1,,19313,,5904,,inactive
Gad1,1,,2533,,1553,,inactive
levy,1,,3098,8353,957,3255,inactive
CheB93b,1,,2.88e5,3.25e5,59841,54950,inactive
CG13445,1,,9011,,3307,,inactive
gcl,1,,6676,,2236,,inactive
CG4025,1,,19826,,10771,,inactive
E(bx),1,,4160,,2400,,inactive
E(bx),2,,5824,,2024,,inactive
E(bx),3,,12205,,2512,,inactive
Ldsdh1,1,,22729,,14099,,inactive
gas,1,,2387,5936,599,1364,inactive
CG15375,1,,27245,,13733,,inactive
Gr58b,1,,2458,4412,739,1824,inactive
CG31495,1,,16096,,3718,,inactive
CG31800,1,,9.00e5,8.95e5,4.45e5,4.04e5,inactive
Ugt304A1,1,,15810,,4471,,inactive
CG7557,1,,9978,,3936,,inactive
CG31659,1,,3024,8400,1426,3368,inactive
CG12929,1,,4176,10017,1536,4192,inactive
fok,1,,2042,6065,865,3380,inactive
CG11710,1,,24696,,11453,,inactive
su(sable),1,,20768,,13861,,inactive
SP1173,1,,3858,,1380,,inactive
Cbp80,1,,2678,8531,1154,1720,inactive
CG15023,1,,1990,9271,1404,3373,inactive
mav,1,,21341,,16214,,inactive
Adgf-A,1,,4880,,1657,,inactive
CG7387,1,,3318,,1388,,inactive
MED4,1,,5776,,1286,,inactive
CG43736,1,Wg reporter activity raised,79395,,5744,,active
CG43736,2,,31433,,11605,,inactive
RpL7A,1,,23463,,6725,,inactive
CG13272,1,,3143,7932,1036,3888,inactive
CG13272,2,,4.86e5,5.43e5,2.10e5,20918,inactive
Ir60e,1,,1467,6059,609,1990,inactive
Acox57D-d,1,,10992,,3377,,inactive
net,1,,3277,8284,1388,3442,inactive
CG30075,1,,17892,,14912,,inactive
CG33322,1,,2293,6392,593,2515,inactive
CG31278,1,,14053,,3579,,inactive
CG30344,1,,7.80e5,8.11e5,3.68e5,1.94e5,inactive
yellow-f2,1,,15035,,4677,,inactive
NKAIN,1,,13936,,3628,,inactive
NKAIN,2,,4.20e5,3.97e5,1.62e5,1.55e5,inactive
CycC,1,,3314,,2041,,inactive
Aldh7A1,1,,7212,,2163,,inactive
Cpr49Ab,1,,21303,,14389,,inactive
dbf,1,,2730,6662,1156,2681,inactive
Tsp42En,1,,3974,7372,1187,3304,inactive
CG42714,1,,3482,,2288,,inactive
CG18048,1,,15030,,3777,,inactive
GlcT,1,,9574,,2856,,inactive
Cht4,1,,3392,9323,1002,2867,inactive
CG15423,1,,4858,8105,1549,3000,inactive
Prosalpha4T2,1,,2115,5745,616,2076,inactive
KCNQ,1,,3268,6987,976,2788,inactive
KCNQ,2,,3568,6747,950,3139,inactive
CG42455 + vnc,1,,5827,,2936,,inactive
CG15475,1,,2397,7243,709,2669,inactive
Hand,1,,2424,7079,1043,4160,inactive
Flo2,1,,3652,,1361,,inactive
Flo2,2,,20839,,12960,,inactive
CG7029,1,,3563,4440,1333,1504,inactive
rad (retired record),1,,4023,,1303,,inactive
rad (retired record),2,,26633,,12038,,inactive
rad (retired record),3,,12506,,2235,,inactive
rad (retired record),4,,6.42e5,6.94e5,2.15e5,3.03e5,inactive
Nnk,1,,15987,,3511,,inactive
CG6204,1,,3186,5976,1129,1841,inactive
CG8369,1,,18458,,5256,,inactive
Atg8b,1,,14115,,1353,,inactive
CG3651,1,,2435,3761,902,1333,inactive
CG13403,1,,20880,,9780,,inactive
drd,1,,22609,,8971,,inactive
drd,2,,8.61e5,9.12e5,5.15e5,4.27e5,inactive
nerfin-2,1,,14704,,3488,,inactive
Hydr1,1,,3427,,729,,inactive

A few values from the list.
Value of Osi11 under “Outcome”: inactive
Value of Start1 under “Outcome”: inactive
Under “Outcome”, CG31538 reads inactive
Value for Ranbp16 + Lcch3 under “Outcome”: inactive
Result of CG43253 (retired record) under “Outcome”: inactive
